Some of the results follow.
The targets below were run with C1=CC=C(C=C1)C2=NC(=C(N2)C3=CC=NC=C3)C4=CC(=C(C=C4)Cl)O (assay: log2 fold change, soluble protein after heating vs DMSO (PISA); higher = thermal stabilisation; K562 cells, 10 uM, 30 min; active = over 0.2 and 3.5 SD of the protein, either way, in both replicates (recomputed)).
Method in brief: (§1)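 K562 cells (2×10^6 cells/mL) were treated with 10 μM compound for 30 min, and aliquots were heated for 3 min over 48°C-58°C. Pooled aliquots were extracted in PBS with 0.5% NP-40 at 4°C, and the supernatant after 21,000xg for 90 min was measured by TMTpro 16plex LC-MS/MS with channel sums equalised. Reported thermal stability, relative to control samples and from duplicates, is a log2 fold change.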

Sequences of proteins named here, by UniProt entry; tags and fusion partners are left off. A change or cut given only in a name is not applied to a line headed by its entry.
UniProt Q9Y446: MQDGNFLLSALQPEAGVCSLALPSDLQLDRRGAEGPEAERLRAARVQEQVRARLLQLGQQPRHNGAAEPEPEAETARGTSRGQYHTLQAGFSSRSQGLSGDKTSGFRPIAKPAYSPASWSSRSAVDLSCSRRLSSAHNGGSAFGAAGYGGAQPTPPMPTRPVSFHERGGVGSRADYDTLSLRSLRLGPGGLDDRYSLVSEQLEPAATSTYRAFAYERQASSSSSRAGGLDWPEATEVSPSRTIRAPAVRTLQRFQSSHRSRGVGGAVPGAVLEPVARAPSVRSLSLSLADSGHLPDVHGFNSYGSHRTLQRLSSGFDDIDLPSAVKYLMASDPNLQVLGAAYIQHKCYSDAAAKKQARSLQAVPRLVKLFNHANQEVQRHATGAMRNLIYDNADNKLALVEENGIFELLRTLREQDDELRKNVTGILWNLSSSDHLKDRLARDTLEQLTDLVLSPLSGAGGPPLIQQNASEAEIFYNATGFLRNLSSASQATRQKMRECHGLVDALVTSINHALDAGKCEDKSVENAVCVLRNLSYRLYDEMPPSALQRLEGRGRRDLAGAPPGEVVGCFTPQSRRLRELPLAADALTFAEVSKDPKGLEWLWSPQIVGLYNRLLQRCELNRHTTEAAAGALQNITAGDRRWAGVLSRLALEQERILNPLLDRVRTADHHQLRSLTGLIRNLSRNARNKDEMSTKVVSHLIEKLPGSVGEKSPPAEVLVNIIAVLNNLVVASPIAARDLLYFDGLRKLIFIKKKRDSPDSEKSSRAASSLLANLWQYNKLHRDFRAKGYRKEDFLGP
UniProt P0C869: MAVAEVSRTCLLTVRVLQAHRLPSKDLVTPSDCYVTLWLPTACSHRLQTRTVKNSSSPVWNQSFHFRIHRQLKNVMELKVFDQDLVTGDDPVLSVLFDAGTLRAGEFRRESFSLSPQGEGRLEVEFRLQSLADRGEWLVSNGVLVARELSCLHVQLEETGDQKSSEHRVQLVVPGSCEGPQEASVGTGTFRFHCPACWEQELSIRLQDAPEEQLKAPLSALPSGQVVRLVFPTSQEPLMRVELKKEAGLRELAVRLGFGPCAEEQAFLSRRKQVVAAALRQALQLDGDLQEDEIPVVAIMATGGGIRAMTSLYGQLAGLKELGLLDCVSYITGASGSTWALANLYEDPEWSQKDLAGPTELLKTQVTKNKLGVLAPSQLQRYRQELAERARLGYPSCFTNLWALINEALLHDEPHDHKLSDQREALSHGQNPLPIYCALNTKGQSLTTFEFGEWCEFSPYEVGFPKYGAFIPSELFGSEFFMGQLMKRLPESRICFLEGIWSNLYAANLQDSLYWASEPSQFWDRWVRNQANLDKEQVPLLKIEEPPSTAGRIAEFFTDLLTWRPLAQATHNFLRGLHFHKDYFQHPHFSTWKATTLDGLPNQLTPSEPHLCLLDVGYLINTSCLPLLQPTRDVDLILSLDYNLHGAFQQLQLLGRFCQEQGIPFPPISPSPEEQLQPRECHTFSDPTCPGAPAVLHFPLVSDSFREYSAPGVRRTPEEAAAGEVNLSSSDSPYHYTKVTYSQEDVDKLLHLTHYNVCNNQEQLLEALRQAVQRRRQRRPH
UniProt P14618, whole entry, looked up: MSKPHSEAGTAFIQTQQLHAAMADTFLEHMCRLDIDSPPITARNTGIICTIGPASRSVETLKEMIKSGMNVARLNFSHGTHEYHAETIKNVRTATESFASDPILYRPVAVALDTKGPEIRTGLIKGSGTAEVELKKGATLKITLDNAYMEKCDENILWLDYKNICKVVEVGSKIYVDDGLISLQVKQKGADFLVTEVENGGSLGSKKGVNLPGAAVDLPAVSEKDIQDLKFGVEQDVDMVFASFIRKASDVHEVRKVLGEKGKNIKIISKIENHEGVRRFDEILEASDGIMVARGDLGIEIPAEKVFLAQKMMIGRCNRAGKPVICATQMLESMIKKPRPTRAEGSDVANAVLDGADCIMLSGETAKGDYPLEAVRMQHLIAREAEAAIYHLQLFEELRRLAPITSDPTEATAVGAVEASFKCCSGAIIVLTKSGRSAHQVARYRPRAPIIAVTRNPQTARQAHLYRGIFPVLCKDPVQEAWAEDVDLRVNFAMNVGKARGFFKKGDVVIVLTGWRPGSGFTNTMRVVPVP
UniProt P08567: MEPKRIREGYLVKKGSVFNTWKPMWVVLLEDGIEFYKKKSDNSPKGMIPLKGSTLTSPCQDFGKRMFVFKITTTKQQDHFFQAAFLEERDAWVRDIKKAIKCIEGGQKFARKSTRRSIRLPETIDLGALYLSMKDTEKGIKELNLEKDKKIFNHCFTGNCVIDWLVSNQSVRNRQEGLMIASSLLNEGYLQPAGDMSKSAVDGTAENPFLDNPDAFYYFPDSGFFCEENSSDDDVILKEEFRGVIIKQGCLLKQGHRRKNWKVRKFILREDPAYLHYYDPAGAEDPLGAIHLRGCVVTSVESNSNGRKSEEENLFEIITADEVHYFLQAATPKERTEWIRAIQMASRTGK
UniProt O95427: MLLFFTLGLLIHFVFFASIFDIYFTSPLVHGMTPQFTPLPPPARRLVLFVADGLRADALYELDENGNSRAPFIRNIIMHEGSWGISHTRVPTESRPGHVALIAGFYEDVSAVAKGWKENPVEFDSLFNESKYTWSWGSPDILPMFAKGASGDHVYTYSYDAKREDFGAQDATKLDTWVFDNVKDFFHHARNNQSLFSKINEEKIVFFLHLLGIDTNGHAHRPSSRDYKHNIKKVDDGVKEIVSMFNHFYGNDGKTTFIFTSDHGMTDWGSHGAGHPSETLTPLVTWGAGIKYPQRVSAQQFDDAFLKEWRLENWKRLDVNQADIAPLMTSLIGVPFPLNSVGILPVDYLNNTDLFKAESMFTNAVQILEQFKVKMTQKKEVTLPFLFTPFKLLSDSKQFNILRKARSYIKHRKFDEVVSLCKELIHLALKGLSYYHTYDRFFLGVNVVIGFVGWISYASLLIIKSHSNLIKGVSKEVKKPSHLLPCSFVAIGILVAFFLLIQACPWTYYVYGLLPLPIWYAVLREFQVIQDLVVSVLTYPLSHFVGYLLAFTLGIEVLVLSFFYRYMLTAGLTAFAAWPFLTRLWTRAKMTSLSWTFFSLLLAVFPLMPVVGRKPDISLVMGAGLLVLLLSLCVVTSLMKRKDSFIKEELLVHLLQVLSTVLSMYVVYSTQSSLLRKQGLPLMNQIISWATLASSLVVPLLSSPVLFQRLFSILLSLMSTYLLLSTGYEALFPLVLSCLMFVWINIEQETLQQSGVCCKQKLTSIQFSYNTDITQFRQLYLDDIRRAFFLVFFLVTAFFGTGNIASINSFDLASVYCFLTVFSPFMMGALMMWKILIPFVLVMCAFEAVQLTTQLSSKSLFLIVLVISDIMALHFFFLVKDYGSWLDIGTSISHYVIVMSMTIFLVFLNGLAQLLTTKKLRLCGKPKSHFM
UniProt O94880: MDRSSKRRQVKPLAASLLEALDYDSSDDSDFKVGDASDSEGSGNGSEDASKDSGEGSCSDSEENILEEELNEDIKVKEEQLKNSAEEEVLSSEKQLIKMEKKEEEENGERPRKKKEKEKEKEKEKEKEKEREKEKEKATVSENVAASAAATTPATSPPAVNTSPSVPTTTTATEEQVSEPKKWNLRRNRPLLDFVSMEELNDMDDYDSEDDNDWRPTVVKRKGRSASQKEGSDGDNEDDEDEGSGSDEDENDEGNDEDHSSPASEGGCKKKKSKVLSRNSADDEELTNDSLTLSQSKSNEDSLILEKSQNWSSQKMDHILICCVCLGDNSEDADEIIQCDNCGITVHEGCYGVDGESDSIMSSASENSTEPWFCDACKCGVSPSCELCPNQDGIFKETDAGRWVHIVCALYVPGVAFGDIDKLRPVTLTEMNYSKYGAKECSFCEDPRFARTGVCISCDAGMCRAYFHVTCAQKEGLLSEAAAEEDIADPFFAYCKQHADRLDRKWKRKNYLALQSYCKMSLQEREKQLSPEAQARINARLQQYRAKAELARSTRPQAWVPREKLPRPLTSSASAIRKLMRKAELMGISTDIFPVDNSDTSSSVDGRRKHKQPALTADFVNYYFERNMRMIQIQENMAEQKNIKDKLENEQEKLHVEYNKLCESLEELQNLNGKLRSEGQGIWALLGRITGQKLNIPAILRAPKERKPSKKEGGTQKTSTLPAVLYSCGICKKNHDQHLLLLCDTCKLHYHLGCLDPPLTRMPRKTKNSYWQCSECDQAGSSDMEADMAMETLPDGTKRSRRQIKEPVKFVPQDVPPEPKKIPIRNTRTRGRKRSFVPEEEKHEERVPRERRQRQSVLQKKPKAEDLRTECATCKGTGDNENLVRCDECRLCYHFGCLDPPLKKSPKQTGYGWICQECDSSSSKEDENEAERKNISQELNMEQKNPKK
UniProt Q92521: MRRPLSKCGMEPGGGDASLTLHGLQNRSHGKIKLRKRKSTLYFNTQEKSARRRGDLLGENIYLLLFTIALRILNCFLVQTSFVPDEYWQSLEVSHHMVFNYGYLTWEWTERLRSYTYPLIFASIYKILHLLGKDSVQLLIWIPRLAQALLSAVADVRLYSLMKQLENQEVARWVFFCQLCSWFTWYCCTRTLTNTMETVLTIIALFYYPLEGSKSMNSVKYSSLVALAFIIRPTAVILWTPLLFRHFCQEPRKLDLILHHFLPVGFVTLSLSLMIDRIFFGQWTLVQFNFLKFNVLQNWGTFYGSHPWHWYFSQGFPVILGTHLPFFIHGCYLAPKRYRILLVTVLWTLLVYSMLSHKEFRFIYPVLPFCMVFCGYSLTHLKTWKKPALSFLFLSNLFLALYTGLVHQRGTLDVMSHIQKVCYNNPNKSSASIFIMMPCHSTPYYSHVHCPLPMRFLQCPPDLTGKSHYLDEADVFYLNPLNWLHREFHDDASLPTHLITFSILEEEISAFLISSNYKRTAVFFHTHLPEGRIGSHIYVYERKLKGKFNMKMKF
UniProt Q9NUJ7: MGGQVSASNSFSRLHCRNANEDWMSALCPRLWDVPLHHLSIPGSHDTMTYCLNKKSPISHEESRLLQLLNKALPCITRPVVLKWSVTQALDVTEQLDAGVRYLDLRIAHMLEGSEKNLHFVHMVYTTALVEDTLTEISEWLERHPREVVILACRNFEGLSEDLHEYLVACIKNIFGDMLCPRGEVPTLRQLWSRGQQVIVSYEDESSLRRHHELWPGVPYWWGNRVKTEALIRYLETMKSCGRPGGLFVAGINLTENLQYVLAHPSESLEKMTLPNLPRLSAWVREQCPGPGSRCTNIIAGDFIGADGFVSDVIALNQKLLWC
UniProt Q9NRD5, whole entry, looked up: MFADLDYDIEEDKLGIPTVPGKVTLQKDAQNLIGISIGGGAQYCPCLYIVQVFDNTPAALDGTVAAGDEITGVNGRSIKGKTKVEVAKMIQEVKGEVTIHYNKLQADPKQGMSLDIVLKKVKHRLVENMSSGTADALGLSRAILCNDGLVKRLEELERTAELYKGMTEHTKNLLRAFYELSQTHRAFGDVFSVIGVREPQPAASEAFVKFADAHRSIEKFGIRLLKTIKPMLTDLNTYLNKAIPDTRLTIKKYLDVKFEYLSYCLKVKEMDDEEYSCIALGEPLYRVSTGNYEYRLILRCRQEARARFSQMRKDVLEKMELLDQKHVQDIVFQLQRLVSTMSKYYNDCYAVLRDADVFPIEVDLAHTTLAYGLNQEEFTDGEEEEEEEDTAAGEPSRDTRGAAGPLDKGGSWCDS
UniProt P07205: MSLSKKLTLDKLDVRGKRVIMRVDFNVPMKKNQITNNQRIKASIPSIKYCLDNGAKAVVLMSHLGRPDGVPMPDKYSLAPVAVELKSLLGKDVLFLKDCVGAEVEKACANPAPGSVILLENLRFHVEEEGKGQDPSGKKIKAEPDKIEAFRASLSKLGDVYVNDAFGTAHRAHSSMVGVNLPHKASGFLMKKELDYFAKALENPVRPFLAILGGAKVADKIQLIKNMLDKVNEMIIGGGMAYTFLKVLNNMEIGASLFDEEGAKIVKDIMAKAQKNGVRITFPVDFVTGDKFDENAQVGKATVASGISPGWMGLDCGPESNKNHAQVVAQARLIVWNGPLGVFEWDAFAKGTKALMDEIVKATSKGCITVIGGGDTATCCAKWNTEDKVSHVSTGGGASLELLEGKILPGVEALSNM
UniProt P60673: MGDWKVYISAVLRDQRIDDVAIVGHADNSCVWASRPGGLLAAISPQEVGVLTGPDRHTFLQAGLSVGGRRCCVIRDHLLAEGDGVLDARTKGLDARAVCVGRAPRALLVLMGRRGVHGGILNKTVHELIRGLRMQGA
UniProt Q03405, whole entry, looked up: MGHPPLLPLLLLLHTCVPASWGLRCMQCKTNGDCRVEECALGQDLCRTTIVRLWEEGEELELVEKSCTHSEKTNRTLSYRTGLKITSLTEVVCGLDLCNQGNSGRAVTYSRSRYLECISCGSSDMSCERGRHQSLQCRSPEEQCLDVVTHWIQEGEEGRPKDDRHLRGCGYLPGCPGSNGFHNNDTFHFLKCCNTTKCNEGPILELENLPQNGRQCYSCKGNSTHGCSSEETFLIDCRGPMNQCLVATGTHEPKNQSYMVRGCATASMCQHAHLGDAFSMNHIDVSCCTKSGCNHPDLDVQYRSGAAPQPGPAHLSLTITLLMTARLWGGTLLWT

log2 fold change, inactive:
PKP3 isoform 2 (UniProt Q9Y446) -0.031
PHC2 isoform 5 (UniProt Q8IXK0) -0.165
PLA2G4B isoform 6 (UniProt P0C869) 0.01
PHRF1 (UniProt Q9P1Y6) 0.073
PKP4 (UniProt Q99569) -0.124
PKMYT1 (UniProt Q99640) -0.454
PHF19 isoform 2 (UniProt Q5T6S3) -0.041
PKM isoform 2 (UniProt P14618) -0.048
PIAS4 (UniProt Q8N2W9) -0.214
PIAS1 isoform 2 (UniProt O75925) 0
PIP5K1A (UniProt Q99755) 0.098
PIK3C2A (UniProt O00443) -0.202
PLEK (UniProt P08567) -0.072
PIGN (UniProt O95427) 0.067
PHF14 (UniProt O94880) 0.098
PIGB (UniProt Q92521) -0.006
PGD (UniProt K7EM49) -0.307
PLCXD1 (UniProt Q9NUJ7) -0.012
PICK1 (UniProt Q9NRD5) -0.217
PGK2 (UniProt P07205) -0.057

What follows are targets tested with C1=CC=C2C(=C1)C3=NNC4=CC=CC(=C43)C2=O in the same assay as above.
Method in brief: as §1

log2 fold change, inactive:
PKHD1 (UniProt P08F94) -0.08
PFN3 (UniProt P60673) -0.486
PKP3 isoform 2 (UniProt Q9Y446) -0.002
PLA2G4B isoform 6 (UniProt P0C869) 0.043
PKM isoform 2 (UniProt P14618) 0.04
PIP5K1A (UniProt Q99755) -0.115
PHETA1 isoform 4 (UniProt Q8N4B1) -0.365
PKLR (UniProt F8W6W2) -0.012
PIGN (UniProt O95427) 0.178
PGK2 (UniProt P07205) -0.012
PLAUR (UniProt Q03405) -0.176

From the supplement of paper PMC10849652
